Measurements taken from PubChem BioAssay AID590 (National Center for Advancing Translational Sciences (NCATS), 2007).
Out of some 59,000 compounds screened, about 6,500 (11%) were called active. Inconclusive means that the source gave no clear call. Such entries were picked first, then a sample of the others. Cut-off read from the data, not from the text of the source: active = max dye-equivalent concentration above about 10 nM; inconclusive = mostly about 1.1 nM to 9.6 nM; inactive = weaker than that.

assay: qHTS Assay for Spectroscopic Profiling in A350 Spectral Region; conditions: Compound autofluorescence, 340/450 nm, Alexa 350 dye-equivalents; active compounds read high

Compound | max dye-equivalent concentration
Cc1cnc(CNc2cc(-c3ccoc3)ncn2)cn1 | inactive
CCOC(=O)CN1CC23C=CC(O2)C(C(=O)Nc2ccc(F)c(C)c2)C3C1=O (centres undefined) | inconclusive: 5.6 nM
c1ccc2c(c1)nc(N1CCOCC1)c1c3ccccc3[nH]c21 | inactive
C=CCn1c(=O)/c(=C/c2cc(OC)c(OC)c(OC)c2)s/c1=C(/C#N)c1nc2ccccc2n1C | inconclusive: 2.7 nM
COc1ccc(Oc2ncc3ncc(=O)n(Cc4cccc(OC)c4)c3n2)cc1 | inactive
Cc1onc(-c2ccccc2Cl)c1C(=O)N[C@H]1C(=O)N2[C@H]1SC(C)(C)[C@H]2C(=O)O | inactive
O=C(Nc1nnc(C2CCCCC2)s1)c1ccco1 | inconclusive: 1.9 nM
COc1ccccc1C(=O)Nc1cccc(-c2cn3ccsc3n2)c1 | inconclusive: 1.5 nM
Cc1cccc2nc(Cn3c(=O)n(CCCC(=O)NCc4ccco4)c(=O)c4ccccc43)cc(=O)n12 | inconclusive: 8.6 nM
c1ccc(CSc2nnnn2-c2cccc3ccccc23)nc1 | inactive
CC(C)CN(CC(C)C)S(=O)(=O)N1CCC(C(=O)NCCN2CCOCC2)CC1 | inconclusive: 1.2 nM
Cc1ccc(S(=O)(=O)N2CCN(C(=O)CN3CCN(C)CC3)C2)cc1 | inactive
CCCCCCNC(=O)c1c(O)c2cccc3c2n(c1=O)CCC3 | inconclusive: 2.6 nM
COc1ccc(S(=O)(=O)N2CN(Cc3ccco3)c3nc4ccccc4nc32)cc1 | active: 55 nM
CCCC(=O)Nc1cc(OCC)c(NC(=O)NC2CCCCC2)cc1OCC | inconclusive: 1.2 nM
O=C(Nc1ccc(-c2nc3ccccc3o2)c(O)c1)c1cc(-n2cnnc2)ccc1Cl | active: 140 nM
c1ccc(N2CCN(c3nc(NCc4ccco4)c4ccccc4n3)CC2)cc1 | active: 12 nM
c1cncc(CNc2ncncc2-c2ccoc2)c1 | inconclusive: 1.7 nM
COc1ccc(NC(=O)c2cc3n(n2)C(C(F)(F)F)CC(c2ccc4c(c2)OCO4)N3)cc1OC (centres undefined) | inconclusive: 1.1 nM
Cc1cc(=O)n2nc(N3CCC(C(=O)N4CCN(Cc5ccccc5)CC4)CC3)sc2n1 | inconclusive: 1.6 nM
Cn1c(C(=O)N2CCN(Cc3ccc4c(c3)OCO4)CC2)cc2sccc21 | inactive
O=C(Nc1ccccc1)N1CCC2(CCNCC2)CC1 | inactive
CCOc1ccccc1Oc1coc2cc(O)ccc2c1=O | active: 300 nM
O=C(CCCc1nc(-c2ccc(Cl)cc2)no1)N1CCOCC1 | inconclusive: 2.8 nM
